Laboratory results: patent US20140038884A1, “ANTIVIRAL PEPTIDES” (priority 2011, published 2014)
Like-named read-outs stand apart in the source and are kept apart here. Part of at least one peptide drawing is inferred or uncertain, most often the ends. Ends that are not written are not given here.

What was measured:
HIV = experiment: Peptide stability, duration of effect on HIV replication in in vitro assays; assay type: cell-based
Method: Current drugs in use for the therapy against HIV infections and AIDS, like e.g. the HAART mixture, are administered in daily doses, whereas the action of the peptides of SEQ ID NO 1, 2, and 3 in in vitro assays highlights a duration of the effect on HIV replication of at least four days.
The effect was verified in two in vitro experimental protocols envisaging: • a treatment of the cells with the virus (adsorption phase), washing, inoculation of the peptide in culture and analysis of viral replication over time; • exposure of the cells to the peptide, adsorption of the cells to the virus, washing, and analysis of viral replication over time.

HIV strain IIIB = experiment: In vitro exogenous infection of healthy-donor PBMCs with HIV strain IIIB, p24 ELISA; conditions: for inhibition of viral replication: +8 days of culture, 10 μg/ml
HIV-1 R5 = conditions: ex vivo
HIV strain BaL = experiment: In vitro exogenous infection of healthy-donor PBMCs with HIV strain BaL, p24 ELISA; conditions: at 12 days, 10 microg/ml, regardless of protocol, FIG. 2
[1] = Isoelectric point (Ip) of the peptides; assay type: physicochemical
[2] = tested on: Cryptococcus neoformans 6995; conditions: growth inhibition, table
[3] = after 5 days of culture, control cells 76 picograms/ml
[4] = day 10, control cells 79 picograms/ml

Sequence | duration of the effect on HIV replication (HIV) | inhibition of viral replication (HIV strain IIIB) | virus replication over the time considered (p24 antigen) (HIV strain IIIB; peptide 10 microg/ml, FIG. 1) | persistence of inhibitory effect (HIV strain IIIB; until day 12, FIG. 1) | p24 values (HIV-1 R5; [3]) [picograms/ml] | p24 values (HIV-1 R5; [4]) [pg/mL] | inhibition of viral replication (HIV strain BaL) | Ip (isoelectric point) [1] | EC50 [2] [µM]
DKPKKKPPPPAGPPPPPPPPPGPPPPGP [peptide 2733] | at least four | relevant effect of inhibition of viral replication | almost equal to zero | remained unaltered until day 12 | 261 | 98 | effective in inhibiting viral replication | 10.0 | 2.2
GPPPQGGNKPQGPPPPGKPQ [peptide 1932] | at least four | relevant effect of inhibition of viral replication | – | – | 137 | 78 | effective in inhibiting viral replication | 10.0 | 5.83
